Not every entry of the source has a single result; some have several. This list holds those alone. An entry can have further records. Values given together differ for a reason that is not stated; they may come from other doses, times, organisms or constructs than stated. Some results are limits rather than exact numbers.

From US20010036947A1 come the findings set out here.

This experiment deals with C57 black 6 mice. As to the kind of experiment: In vivo hair generation test, Experiment A. The following applies: 3 μM topical, 3 applications every 48 hours, after six weeks; listed as GPI 1102.

As for `CCC(C)(C)C(=O)C(=O)N1CCCCC1C(=O)OC(CCCc1ccccc1)CCCc1ccccc1` (stereo not shown), the “percent of shaved area covered by new hair growth” value was ≤ 50% and 90%.
